Here are results for one substance from paper doi:10.1101/209809 (bioRxiv, 2017).

Sequences of proteins named here, by UniProt entry; tags and fusion partners are left off. A change or cut given only in a name is not applied to a line headed by its entry. Residues count along the entry.
UniProt O95639, 33-170, stated change not applied: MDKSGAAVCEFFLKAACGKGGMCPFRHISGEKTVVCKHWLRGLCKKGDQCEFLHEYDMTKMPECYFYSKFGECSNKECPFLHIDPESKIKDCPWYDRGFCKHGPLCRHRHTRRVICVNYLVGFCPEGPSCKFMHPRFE

The experiment deals with CPSF-160–WDR33 binary complex (human, UniProt Q10570 1-1443; Q9C0J8 1-572). The experiment in a line: SEC. (Size exclusion chromatography separates by hydrodynamic size, large species first.)

These are yes or no findings as the source states them, for the method shown.

Consider “CPSF-30 deletion mutant (residues 33-170) (from UniProt O95639 33-170) (domain or fragment)”, for which the binding result is reported as “no binding”.
